From PubChem BioAssay (EPA / NIEHS)
This list was built around the results that the source calls inconclusive (neither active nor inactive); the mix of calls is not that of the screen. Where the call is inconclusive, the potency comes from a doubtful curve fit. Active and inactive are the calls of the source. How the source made its calls: active means hit-call score of the fitted dose curve at least 0.9, where 1 is the maximum; inconclusive means response in the unintended direction; inactive means score below 0.9.

Assay: NVS_GPCR_bNPY_NonSelective: NovaScreen (NVS) G Protein-Coupled Receptor Assay for bovine Neuropeptide Y (NPY) Receptor, Non-selective Binding (AID 2283245)
Protocol: NVS_GPCR_bNPY_NonSelective is a biochemical, single-readout assay that uses extracted gene-proteins from Bovine hippocampal membranes in a tissue-based cell-free assay. Measurements were taken 1 hour after chemical dosing in a 96-well plate.NVS_GPCR_bNPY_NonSelective is one of one assay component(s) measured or calculated from the NVS_GPCR_bNPY_NonSelective assay. It is designed to make measurements of radioligand binding, a form of binding reporter, as detected with scintillation counting signals by Filter-based radiodetection technology.Data from the assay component NVS_GPCR_bNPY_NonSelective was analyzed into 1 assay endpoint. This assay endpoint, NVS_GPCR_bNPY_NonSelective, was analyzed in the positive analysis fitting direction relative to DMSO as the negative control and baseline of activity. Using a type of binding reporter, loss-of-signal activity can be used to understand changes in the binding as they relate to the gene NPY. Furthermore, this assay endpoint can be referred to as a primary readout, because the performed assay has only produced 1 assay endpoint. To generalize the intended target to other relatable targets, this assay endpoint is annotated to the gpcr intended target family, where the subfamily is rhodopsin-like receptor.
Binding assays used specific radioligands (tritiated, iodinated) with non-radioactive competitive displacement ligands in agonist or antagonist protocols (as indicated) and various reference compounds and inhibitors to titrate specific binding to receptors and transporters. Most enzyme assays (CYPs, kinases, phosphatases, proteases, HDACs) used recombinant protein and specific substrates (fluorescence mostly, some colorimetric and radioactive) and inhibitors, followed by a biochemical separation of substrate and product. All assays for the biochemical HTS were initially run in duplicate at a single concentration (10 uM for CYP450 assays and 25 uM for all others). Assay-chemical combinations meeting a pre-defined threshold (e.g., 30% inhibition and other criteria defined below) were then run in singleton concentration-response format with maximum concentration of 20 uM for CYPs and 50 uM for all others. Each assay was run with positive and negative controls, and concurrent controls on every plate. The follow-up (secondary) screen tested active chemical-pairs in concentration series, as well as a few additional assays not tested in the primary screen, some selected negative inactives, and several cases re-run in the concentration series for confirmatory purposes.

SMILES | outcome | AC50
CN(C)C(=O)NC1(c2ccccc2)CCN(CCC[C@]2(c3ccc(Cl)c(Cl)c3)CCCN(C(=O)c3ccccc3)C2)CC1 | inactive | –
CCOC(=O)O[C@H](C)OC(=O)c1ccc2c(c1)cc(C(=O)NC1CCN(C(C)C)CC1)n2Cc1cc(-c2ccc(Cl)s2)on1 | – | active: 23.6 µM
CC(=O)OC/C=C(\C)CCC=C(C)C | – | inconclusive: 1.53 µM
CC(C)C(=O)Nc1ccc([N+](=O)[O-])c(C(F)(F)F)c1 | inactive | –
CCN(CC)C(=O)c1cc(S(=O)(=O)Cc2ccccc2)c(N2CCC(c3ccccc3)CC2)cc1N(CC)CCN(C)C | inactive | –
CCCCc1oc2ccccc2c1C(=O)c1cc(I)c(OCCN(CC)CC)c(I)c1 | inactive | –
CCCCCCCCCCCCCCCCOS(=O)(=O)O | – | inconclusive: 0.534 µM
CN(C)CCOC(c1ccccc1)c1ccccc1 | – | inconclusive: 0.667 µM
CCCCCCCC(=O)OC | – | inconclusive: 25 µM
O=Cc1ccccc1C=O | – | inconclusive: 28.8 µM

In a second layout: 2 of the compounds above.
SMILES	outcome	AC50
CC(=O)OC/C=C(\C)CCC=C(C)C	–	inconclusive: 1.53 µM
CC(C)C(=O)Nc1ccc([N+](=O)[O-])c(C(F)(F)F)c1	inactive	–
